According to article PMC10202695:
Results are given in words; binding and its absence hold for the method and conditions named. Binding seen in cells or lysates may run through a third protein. Here binding means that the protein was enriched with, or labelled near, the bait; the list need not be complete. A no says only that the protein was not detected with the bait. Where a sequence is shown, tags or fusion partners need not be part of it.

Sequences of proteins named here, by UniProt entry; tags and fusion partners are left off. Residues count along the entry.
UniProt Q15388: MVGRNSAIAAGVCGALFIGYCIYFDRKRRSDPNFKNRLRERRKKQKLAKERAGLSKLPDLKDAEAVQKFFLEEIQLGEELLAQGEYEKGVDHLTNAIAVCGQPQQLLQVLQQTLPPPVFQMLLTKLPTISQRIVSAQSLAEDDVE
UniProt P38646, residues 47-679: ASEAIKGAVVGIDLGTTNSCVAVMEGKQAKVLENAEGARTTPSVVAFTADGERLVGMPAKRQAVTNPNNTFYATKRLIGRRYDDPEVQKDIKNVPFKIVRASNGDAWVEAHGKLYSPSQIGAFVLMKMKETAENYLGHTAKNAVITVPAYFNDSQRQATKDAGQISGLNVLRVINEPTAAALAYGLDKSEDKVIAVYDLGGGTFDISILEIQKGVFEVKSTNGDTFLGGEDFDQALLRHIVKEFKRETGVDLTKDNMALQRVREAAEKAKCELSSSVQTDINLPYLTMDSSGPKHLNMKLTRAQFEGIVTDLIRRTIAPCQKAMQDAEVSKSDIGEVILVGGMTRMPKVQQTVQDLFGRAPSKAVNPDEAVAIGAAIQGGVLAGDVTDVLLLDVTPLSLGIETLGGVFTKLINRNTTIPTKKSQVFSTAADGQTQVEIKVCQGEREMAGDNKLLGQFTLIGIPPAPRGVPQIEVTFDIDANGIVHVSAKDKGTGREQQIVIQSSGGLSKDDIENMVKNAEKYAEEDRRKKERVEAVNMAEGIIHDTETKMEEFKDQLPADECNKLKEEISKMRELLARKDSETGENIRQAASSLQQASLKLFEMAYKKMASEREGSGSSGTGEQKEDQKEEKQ
UniProt P21796: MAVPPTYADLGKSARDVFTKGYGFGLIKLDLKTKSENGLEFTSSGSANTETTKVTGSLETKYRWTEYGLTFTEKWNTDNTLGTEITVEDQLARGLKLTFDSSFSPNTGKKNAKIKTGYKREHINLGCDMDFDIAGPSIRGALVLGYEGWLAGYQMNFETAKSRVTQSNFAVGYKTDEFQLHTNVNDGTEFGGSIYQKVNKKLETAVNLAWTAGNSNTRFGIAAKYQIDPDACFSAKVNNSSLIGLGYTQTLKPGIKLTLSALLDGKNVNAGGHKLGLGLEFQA

Target: T1, Myc-tagged WFS1 (Wolfram syndrome 1; wolframin) (UniProt O76024)
T1 sequence: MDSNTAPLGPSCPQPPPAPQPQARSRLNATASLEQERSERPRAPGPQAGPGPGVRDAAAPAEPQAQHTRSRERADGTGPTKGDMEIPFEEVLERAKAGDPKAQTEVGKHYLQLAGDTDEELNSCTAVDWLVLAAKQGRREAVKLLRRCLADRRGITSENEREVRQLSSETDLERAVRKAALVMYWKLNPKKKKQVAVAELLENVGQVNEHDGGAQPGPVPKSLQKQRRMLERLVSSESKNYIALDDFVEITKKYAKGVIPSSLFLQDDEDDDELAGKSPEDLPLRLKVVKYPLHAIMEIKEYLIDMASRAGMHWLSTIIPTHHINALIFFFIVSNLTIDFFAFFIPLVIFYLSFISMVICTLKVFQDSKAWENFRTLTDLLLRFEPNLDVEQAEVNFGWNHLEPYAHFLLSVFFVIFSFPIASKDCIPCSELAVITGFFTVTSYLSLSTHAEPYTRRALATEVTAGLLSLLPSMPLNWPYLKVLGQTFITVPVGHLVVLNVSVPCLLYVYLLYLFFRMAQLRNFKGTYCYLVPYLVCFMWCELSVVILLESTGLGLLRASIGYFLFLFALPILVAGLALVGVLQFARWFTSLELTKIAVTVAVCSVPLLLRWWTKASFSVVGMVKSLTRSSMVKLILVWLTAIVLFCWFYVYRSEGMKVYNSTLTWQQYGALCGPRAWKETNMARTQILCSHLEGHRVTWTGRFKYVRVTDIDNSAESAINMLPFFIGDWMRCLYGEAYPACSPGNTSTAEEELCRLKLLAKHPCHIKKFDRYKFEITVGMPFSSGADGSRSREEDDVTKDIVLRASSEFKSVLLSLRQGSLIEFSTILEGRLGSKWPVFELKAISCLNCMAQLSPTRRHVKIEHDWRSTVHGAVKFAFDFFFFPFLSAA
Assay: affinity purification with mass spectrometry; lysate of HEK293 cells overexpressing Myc-WFS1; IP with WFS1 antibody or IgG from non-immunized animals (Dynabeads Protein A); SDS-PAGE, in-gel tryptic digestion, LC-MS/MS

binding	Substance
no binding	TOM20 (from UniProt Q15388 1-145)
binds	chaperone glucose-regulated protein GRP75 (from UniProt P38646 47-679)
binds	voltage-dependent anion channel 1 (VDAC1), HEK293 (from UniProt P21796 1-283)
